Laboratory results: patent US20250074896A1, “ARYLTETRAHYDROPYRIDAZINE DERIVATIVE OR SALT THEREOF AND INSECTICIDAL AGENT CONTAINING THE COMPOUND AND METHOD FOR USING SAME” (NIHON NOHYAKU CO., LTD., priority 2021, published 2025)
Some of these results come from one statement about several compounds together.

Tests used:
Type in all cases: in vivo
[1] = system: Small Brown Planthopper (Laodelphax striatellus); experiment: Insecticidal test on small brown planthopper (dipped rice seedlings, 3rd-instar larvae); conditions: rice seedlings dipped 30 seconds, 8 days after inoculation
[2] = system: Western Flower Thrips (Frankliniella occidentalis); experiment: Insecticidal test on western flower thrips (kidney bean leaf pieces, hatched larvae); conditions: 4 days after the treatment
[3] = system: Diamondback moth (Plutella xylostella); experiment: Insecticidal test on diamondback moth (dip treatment of Chinese cabbage seedlings with laid eggs); conditions: dip about 30 seconds, 6 days after treatment, 25° C.

Cc1cc(NC(=O)C2=C(O)CN(c3ccc(C(F)(F)F)cc3)NC2=O)ccc1F [1-23]
A (the mortality rate is 100%): insecticidal efficacy (corrected mortality rate) against small brown planthopper ([1]; 50 ppm) | insecticidal efficacy (corrected mortality rate) against small brown planthopper ([1]; 500 ppm) | insecticidal efficacy (corrected mortality rate) against western flower thrips ([2]; 50 ppm) | insecticidal efficacy (corrected mortality rate) against western flower thrips ([2]; 500 ppm) | insecticidal efficacy (corrected mortality rate) against diamondback moth ([3]; 50 ppm) | insecticidal efficacy (corrected mortality rate) against diamondback moth ([3]; 500 ppm)

Cn1cc(NC(=O)C2=C(O)CN(c3ccc(Cl)cn3)NC2=O)cn1 [1-297]
A (the mortality rate is 100%): insecticidal efficacy (corrected mortality rate) against small brown planthopper ([1]; 50 ppm) | insecticidal efficacy (corrected mortality rate) against small brown planthopper ([1]; 500 ppm) | insecticidal efficacy (corrected mortality rate) against western flower thrips ([2]; 500 ppm) | insecticidal efficacy (corrected mortality rate) against diamondback moth ([3]; 500 ppm)

COC(=O)N1C(=O)C(C(=O)Nc2cc(F)c(F)cc2F)=C(O)CN1c1cnc(C#N)c(C)c1 [3-535]
A (the mortality rate is 100%): insecticidal efficacy (corrected mortality rate) against small brown planthopper ([1]; 50 ppm) | insecticidal efficacy (corrected mortality rate) against small brown planthopper ([1]; 500 ppm) | insecticidal efficacy (corrected mortality rate) against western flower thrips ([2]; 50 ppm) | insecticidal efficacy (corrected mortality rate) against western flower thrips ([2]; 500 ppm) | insecticidal efficacy (corrected mortality rate) against diamondback moth ([3]; 500 ppm)

COC(=O)N1C(=O)C(C(=O)Nc2ccc(F)cc2)=C(O)CN1c1cnc(C#N)c(C)c1 [3-173]
A (the mortality rate is 100%): insecticidal efficacy (corrected mortality rate) against small brown planthopper ([1]; 50 ppm) | insecticidal efficacy (corrected mortality rate) against small brown planthopper ([1]; 500 ppm) | insecticidal efficacy (corrected mortality rate) against western flower thrips ([2]; 50 ppm) | insecticidal efficacy (corrected mortality rate) against western flower thrips ([2]; 500 ppm) | insecticidal efficacy (corrected mortality rate) against diamondback moth ([3]; 50 ppm) | insecticidal efficacy (corrected mortality rate) against diamondback moth ([3]; 500 ppm)

N#Cc1ccc(N2CC(O)=C(C(=O)Nc3ccc(F)c(C#N)c3)C(=O)N2)cc1 [1-247]
A (the mortality rate is 100%): insecticidal efficacy (corrected mortality rate) against small brown planthopper ([1]; 50 ppm) | insecticidal efficacy (corrected mortality rate) against small brown planthopper ([1]; 500 ppm) | insecticidal efficacy (corrected mortality rate) against western flower thrips ([2]; 50 ppm) | insecticidal efficacy (corrected mortality rate) against western flower thrips ([2]; 500 ppm) | insecticidal efficacy (corrected mortality rate) against diamondback moth ([3]; 50 ppm) | insecticidal efficacy (corrected mortality rate) against diamondback moth ([3]; 500 ppm)

Cc1cc(N2CC(O)=C(C(=O)Nc3ccc(F)nc3)C(=O)N2)cnc1C#N [1-52]
A (the mortality rate is 100%): insecticidal efficacy (corrected mortality rate) against small brown planthopper ([1]; 50 ppm) | insecticidal efficacy (corrected mortality rate) against small brown planthopper ([1]; 500 ppm) | insecticidal efficacy (corrected mortality rate) against western flower thrips ([2]; 50 ppm) | insecticidal efficacy (corrected mortality rate) against western flower thrips ([2]; 500 ppm) | insecticidal efficacy (corrected mortality rate) against diamondback moth ([3]; 500 ppm)

COC(=O)N1C(=O)C(C(=S)Nc2ccc(F)cc2)=C([O-])CN1c1ccc(C#N)nc1.[K+] [4-144]
A (the mortality rate is 100%): insecticidal efficacy (corrected mortality rate) against small brown planthopper ([1]; 50 ppm) | insecticidal efficacy (corrected mortality rate) against small brown planthopper ([1]; 500 ppm) | insecticidal efficacy (corrected mortality rate) against western flower thrips ([2]; 50 ppm) | insecticidal efficacy (corrected mortality rate) against western flower thrips ([2]; 500 ppm) | insecticidal efficacy (corrected mortality rate) against diamondback moth ([3]; 50 ppm) | insecticidal efficacy (corrected mortality rate) against diamondback moth ([3]; 500 ppm)

O=C(Nc1ccc(F)c(F)c1)C1=C(O)CN(c2ccc(C(F)(F)F)cn2)NC1=O [1-73]
A (the mortality rate is 100%): insecticidal efficacy (corrected mortality rate) against small brown planthopper ([1]; 500 ppm) | insecticidal efficacy (corrected mortality rate) against western flower thrips ([2]; 50 ppm) | insecticidal efficacy (corrected mortality rate) against western flower thrips ([2]; 500 ppm) | insecticidal efficacy (corrected mortality rate) against diamondback moth ([3]; 50 ppm) | insecticidal efficacy (corrected mortality rate) against diamondback moth ([3]; 500 ppm)

CCCNC(=O)N1C(=O)C(C(=O)Nc2ccc(F)cc2)=C(O)CN1c1ccc(C(F)(F)F)nc1 [3-46]
A (the mortality rate is 100%): insecticidal efficacy (corrected mortality rate) against small brown planthopper ([1]; 50 ppm) | insecticidal efficacy (corrected mortality rate) against small brown planthopper ([1]; 500 ppm) | insecticidal efficacy (corrected mortality rate) against western flower thrips ([2]; 50 ppm) | insecticidal efficacy (corrected mortality rate) against western flower thrips ([2]; 500 ppm) | insecticidal efficacy (corrected mortality rate) against diamondback moth ([3]; 50 ppm) | insecticidal efficacy (corrected mortality rate) against diamondback moth ([3]; 500 ppm)

CCNC(=O)N1C(=O)C(C(=O)Nc2ccc(F)cc2)=C(S)CN1c1ccc(C(F)(F)F)nc1 [5-4]
A (the mortality rate is 100%): insecticidal efficacy (corrected mortality rate) against small brown planthopper ([1]; 50 ppm) | insecticidal efficacy (corrected mortality rate) against small brown planthopper ([1]; 500 ppm) | insecticidal efficacy (corrected mortality rate) against western flower thrips ([2]; 500 ppm) | insecticidal efficacy (corrected mortality rate) against diamondback moth ([3]; 500 ppm)

COCCOC(=O)N1C(=O)C(C(=O)Nc2ccc(F)cc2)=C(O)CN1c1ccc(C#N)nc1 [3-348]
A (the mortality rate is 100%): insecticidal efficacy (corrected mortality rate) against small brown planthopper ([1]; 50 ppm) | insecticidal efficacy (corrected mortality rate) against small brown planthopper ([1]; 500 ppm) | insecticidal efficacy (corrected mortality rate) against western flower thrips ([2]; 50 ppm) | insecticidal efficacy (corrected mortality rate) against western flower thrips ([2]; 500 ppm) | insecticidal efficacy (corrected mortality rate) against diamondback moth ([3]; 50 ppm) | insecticidal efficacy (corrected mortality rate) against diamondback moth ([3]; 500 ppm)

COCCOC(=O)N1C(=O)C(C(=S)Nc2ccc(C)cc2)=C(O)CN1c1ccc(C#N)nc1 [4-66]
A (the mortality rate is 100%): insecticidal efficacy (corrected mortality rate) against small brown planthopper ([1]; 50 ppm) | insecticidal efficacy (corrected mortality rate) against small brown planthopper ([1]; 500 ppm) | insecticidal efficacy (corrected mortality rate) against western flower thrips ([2]; 50 ppm) | insecticidal efficacy (corrected mortality rate) against western flower thrips ([2]; 500 ppm) | insecticidal efficacy (corrected mortality rate) against diamondback moth ([3]; 500 ppm)

COC(=O)N1C(=O)C(C(=O)Nc2ccc(F)cc2F)=C(O)CN1c1cnc(C#N)c(Cl)c1 [3-472]
A (the mortality rate is 100%): insecticidal efficacy (corrected mortality rate) against small brown planthopper ([1]; 50 ppm) | insecticidal efficacy (corrected mortality rate) against small brown planthopper ([1]; 500 ppm) | insecticidal efficacy (corrected mortality rate) against western flower thrips ([2]; 50 ppm) | insecticidal efficacy (corrected mortality rate) against western flower thrips ([2]; 500 ppm) | insecticidal efficacy (corrected mortality rate) against diamondback moth ([3]; 50 ppm) | insecticidal efficacy (corrected mortality rate) against diamondback moth ([3]; 500 ppm)

N#Cc1ccc(N2CC(O)=C(C(=O)Nc3cccc(F)c3)C(=O)N2)cc1 [1-233]
A (the mortality rate is 100%): insecticidal efficacy (corrected mortality rate) against small brown planthopper ([1]; 50 ppm) | insecticidal efficacy (corrected mortality rate) against small brown planthopper ([1]; 500 ppm) | insecticidal efficacy (corrected mortality rate) against western flower thrips ([2]; 50 ppm) | insecticidal efficacy (corrected mortality rate) against western flower thrips ([2]; 500 ppm) | insecticidal efficacy (corrected mortality rate) against diamondback moth ([3]; 50 ppm) | insecticidal efficacy (corrected mortality rate) against diamondback moth ([3]; 500 ppm)

Cc1cc(N2CC(O)=C(C(=O)Nc3ccc(F)cc3F)C(=O)N2)cnc1C#N [1-288]
A (the mortality rate is 100%): insecticidal efficacy (corrected mortality rate) against small brown planthopper ([1]; 50 ppm) | insecticidal efficacy (corrected mortality rate) against small brown planthopper ([1]; 500 ppm) | insecticidal efficacy (corrected mortality rate) against western flower thrips ([2]; 50 ppm) | insecticidal efficacy (corrected mortality rate) against western flower thrips ([2]; 500 ppm) | insecticidal efficacy (corrected mortality rate) against diamondback moth ([3]; 50 ppm) | insecticidal efficacy (corrected mortality rate) against diamondback moth ([3]; 500 ppm)

COC(=O)N1C(=O)C(C(=O)Nc2ccc(F)cc2)=C(O)CN1c1ccc(C#N)c(C)c1 [3-219]
A (the mortality rate is 100%): insecticidal efficacy (corrected mortality rate) against small brown planthopper ([1]; 50 ppm) | insecticidal efficacy (corrected mortality rate) against small brown planthopper ([1]; 500 ppm) | insecticidal efficacy (corrected mortality rate) against western flower thrips ([2]; 50 ppm) | insecticidal efficacy (corrected mortality rate) against western flower thrips ([2]; 500 ppm) | insecticidal efficacy (corrected mortality rate) against diamondback moth ([3]; 50 ppm) | insecticidal efficacy (corrected mortality rate) against diamondback moth ([3]; 500 ppm)

Cc1cc(N2CC(O)=C(C(=O)Nc3ccccc3F)C(=O)N2)cnc1C#N [1-320]
A (the mortality rate is 100%): insecticidal efficacy (corrected mortality rate) against small brown planthopper ([1]; 50 ppm) | insecticidal efficacy (corrected mortality rate) against small brown planthopper ([1]; 500 ppm) | insecticidal efficacy (corrected mortality rate) against western flower thrips ([2]; 50 ppm) | insecticidal efficacy (corrected mortality rate) against western flower thrips ([2]; 500 ppm) | insecticidal efficacy (corrected mortality rate) against diamondback moth ([3]; 50 ppm) | insecticidal efficacy (corrected mortality rate) against diamondback moth ([3]; 500 ppm)

COC(=O)N1C(=O)C(C(=O)Nc2ccc(F)c(F)c2)=C(O)CN1c1ccc(Br)nc1 [3-390]
A (the mortality rate is 100%): insecticidal efficacy (corrected mortality rate) against small brown planthopper ([1]; 50 ppm) | insecticidal efficacy (corrected mortality rate) against small brown planthopper ([1]; 500 ppm) | insecticidal efficacy (corrected mortality rate) against western flower thrips ([2]; 50 ppm) | insecticidal efficacy (corrected mortality rate) against western flower thrips ([2]; 500 ppm) | insecticidal efficacy (corrected mortality rate) against diamondback moth ([3]; 50 ppm) | insecticidal efficacy (corrected mortality rate) against diamondback moth ([3]; 500 ppm)
